## Results of single-concentration screens

Source: ChEMBL document CHEMBL3988442, “University of Dundee, Small-Polar-MMV Screening Library” (2021).

The filed quantity is “Percent Effect” (%).
How 0% and 100% were set is not recorded. Most values in the screen are low, and negative values occur.
The compounds are a random part of those screened.

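Whole-parasite assay of Trypanosoma brucei over 72 hours; the read-out is not stated. Tested at 30 µM. The record gives no direction; compounds that gave an IC50 in retests scored well above the rest, so higher reads as stronger inhibition. Values scatter widely below zero; nearly all retest evidence comes from the higher of the two concentrations used. Size under these conditions: about 64,000 compounds, about 940 of them at 50% or above in at least one test.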

With COc1cc(C)c(CN2CCC3(CC2)[C@H](O)C[C@@H]3OCCN)cc1C the screen gave -10.36%.
With CS(=O)(=O)CCSc1cccc(C#N)c1 the screen gave 2.603%.
With Cc1ccc2c(c1)CN(C(=O)c1cnc(C)cn1)C(CN(C)C)CO2.Cl (stereo unspecified) the screen gave -10.3%.
With CC(C)(C)OC(=O)N[C@H]1CCN(c2cncc(Br)c2)C1 the screen gave -107.6%.
With COc1ccc(-c2nnc(SC(C)C(=O)NCC(C)C)[nH]2)c(OC)c1 (stereo unspecified) the screen gave 31.1%.
With CCOCc1ccc(NC(=O)C(C)C)cc1 the screen gave -3.261%.
With Cc1ccc2c(c1)C(NC1CCN(C)CC1)CCCO2 (stereo unspecified) the screen gave -79.83%.
With Cc1ccc(C(=O)Nc2cn[nH]c2)cc1F the screen gave -30.05%.
With Oc1cccc(CNCc2ccc(-n3cncn3)nc2)c1 the screen gave -113.8%.
With Cc1nnc(NC(=O)CN2CCCC2c2noc(C3CC3)n2)s1 (stereo unspecified) the screen gave -58.51%.
With Cc1noc(C)c1CN1CCCC1c1nnc2ccccn12 (stereo unspecified) the screen gave -36.73%.
With CC(C)N1CCC(Cc2cncc(-c3cccc(C(=O)O)c3)n2)C1 (stereo unspecified) the screen gave 2.268%.
With COc1cccc(C(C)N2CCN(S(C)(=O)=O)CC2)c1 (stereo unspecified) the screen gave -94.9%.
With CO[C@H]1CN(Cc2ccccc2F)C[C@@]12CCCO2 the screen gave -11.54%.
With CC(=O)N1CCN(C(=O)NCc2csc(Br)c2)CC1 the screen gave 7.688%.
With CC(=O)NCCCNCc1cc(F)ccc1Br the screen gave -82.44%.
With CC(C)(C)S(=O)(=O)CCNC1CSCCc2ccccc21 (stereo unspecified) the screen gave -35.99%.
With Cc1nnc(N2CCC(CCN(C)C)CC2)c(C#N)c1C the screen gave 26.36%.
With CC(C)c1nnc2n1CCN(Cc1ncc(-c3ccccc3)o1)C2 the screen gave 10.19%.
With c1cc(CN2CCC(c3nnc4n3CCCCC4)CC2)c2c(c1)OCO2 the screen gave 2.697%.
With CC(=O)N1CCC(C(=O)NC(C)c2cccc(OC(F)F)c2)CC1 (stereo unspecified) the screen gave -13.66%.
With COc1ccccc1C(=O)N1CCC(O)(c2cccc(C)c2C)CC1 the screen gave -17.37%.
With CCN1CCN(C)C2(CCN(Cc3cccc(C)n3)CC2)C1=O.O=C(O)C(F)(F)F.O=C(O)C(F)(F)F the screen gave -22.21%.
With CSCC(CCO)NC(=O)Nc1cc(C)ccc1C (stereo unspecified) the screen gave -105.4%.
With COc1cc(C(=O)N2CCCC(c3cc(C)[nH]n3)C2)ccc1C (stereo unspecified) the screen gave -32.66%.
With CCC[C@H]1CN(c2nccc(NCC)n2)C[C@@H]1NS(=O)(=O)N(C)C the screen gave -81.02%.
With N#Cc1cc2c(=O)n(CC(O)c3cccc(O)c3)ccc2[nH]c1=O (stereo unspecified) the screen gave 12.14%.
With CC(c1ccc(F)cc1F)N1CCN(CCN2CCCC2=O)CC1 (stereo unspecified) the screen gave -41.87%.
With CN(CCCOc1ccccc1)S(=O)(=O)N1CCOCC1 the screen gave -26.21%.
With COCCN1CC2(CCCN(C(=O)NCc3ccccc3)C2)CCC1=O (stereo unspecified) the screen gave 9.663%.
With c1cnc(N2CCCC(c3cc4cccnc4[nH]3)C2)nc1 (stereo unspecified) the screen gave -7.421%.
With CN(C)C(C)(C)CNC(=O)C(C)(C)c1ccccc1F the screen gave -1.122%.
With O=C(c1n[nH]cc1Cl)N1CCOCC1 the screen gave -2.201%.
With CNC(=O)C1(C)CCCN(c2cnccn2)C1 (stereo unspecified) the screen gave -36.54%.
With CC(C)C(NC(=O)NCC1CC1)c1nnc2n1CCC2 (stereo unspecified) the screen gave -29.15%.
With Cc1nc(C)n(C2CCCN(C(=O)Cc3n[nH]c4ccccc34)C2)n1 (stereo unspecified) the screen gave 18.5%.
With COCCN1CCC(NC(=O)C/C=C/c2ccc(C(C)C)cc2)CC1 the screen gave -76.22%.
With CCOCC1COCCC12CCN(C(=O)C1=CCCC1)CC2 (stereo unspecified) the screen gave -47.29%.
With CN(Cc1cc(C(C)(C)C)n[nH]1)C(=O)CCC(=O)NC1CCCC1 the screen gave -18.2%.
With CS(=O)(=O)c1ccc2c(c1)N(C(=O)c1cccc(F)c1)CCC2 the screen gave -18.69%.

Some entries from above, unchanged:

{"structure": "CC(C)N1CCC(Cc2cncc(-c3cccc(C(=O)O)c3)n2)C1", "stereo": "stereo unspecified", "percent effect": 2.268}
{"structure": "c1cc(CN2CCC(c3nnc4n3CCCCC4)CC2)c2c(c1)OCO2", "percent effect": 2.697}
{"structure": "CO[C@H]1CN(Cc2ccccc2F)C[C@@]12CCCO2", "percent effect": -11.54}